In PubChem BioAssay AID1487 (National Center for Advancing Translational Sciences (NCATS), 2009):
The list shows a part of the results. Further columns of the screen follow, without active or inactive calls. Compounds called inactive in the main read-out are mostly missing here. Words in brackets tell the shape of the fitted curve; partial curves, single points and poor fits give uncertain potencies.

Experiment: qHTS Assay for Modulators of Lamin A Splicing
Conditions: HeLa LMNA splicing GFP/RFP minigene ratio, 48 h
Outline: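 S3 HeLa stable clones carrying a lamin A-EGFP splicing minigene plus DsRed2 were seeded at 600 cells/well in Opti-MEM with 2% FBS, pin-dosed and incubated 48 h at 37°C. Acumen cytometry (488 nm) gave the GFP/RFP total-intensity ratio.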

[1] = measured here: GFP splicing reporter channel
[2] = measured here: RFP viability control channel

SMILES	AC50 [1]	AC50 [2]
CCOc1ccc2nc(Nc3nc4ccc(NC(C)=O)cc4s3)sc2c1	1.12 µM [rising, full curve, poor fit]	–
N#Cc1cncc(-c2ccc3c(c2)OCCOCCOCCOCCOCCO3)n1	0.316 µM [falling, full curve, poor fit]	–
CC(C)CNc1nc(SCC(=O)Nc2ccccc2)nc(N2CCOCC2)n1	20 µM [falling, partial curve, poor fit]	15.8 µM [falling, partial curve, poor fit]
COc1cc(C2CC(=O)Nc3cc(C)c(C)cc32)cc(OC)c1OC (stereo unspecified)	–	35.5 µM [rising, single point]
CCOc1cc(OCC)cc(C(=O)NCCCN2CCOCC2)c1	0.794 µM [rising, single point]	–
COc1ccc(-c2nn3c(-c4ccco4)nnc3s2)cc1OC	15.8 µM [falling, single point]	–
COc1ccc(Cn2nnnc2CN(Cc2cc3ccc(C)cc3[nH]c2=O)C2CCCC2)cc1	35.5 µM [rising, partial curve, poor fit]	17.8 µM [rising, single point]
CCc1cc(-c2n[nH]c(=S)n2CC)cs1	14.1 µM [falling, single point]	–
COc1ccccc1OC(=O)Oc1ccccc1OC	0.000891 µM [falling, full curve, poor fit]	2.82 µM [rising, single point]
CCOc1cc(C2C3=C(CCCC3=O)N(CCC(=O)O)C3=C2C(=O)CCC3)ccc1OS(=O)(=O)c1ccc(C)cc1	–	15.8 µM [falling, partial curve, poor fit]
COc1cccc(Cn2c(=O)cnc3cncnc32)c1	5.62 µM [falling, full curve]	5.62 µM [falling, full curve]
Cc1nc(N2CCN(c3ccccn3)CC2)c2c(C)c(C(=O)Nc3ccccc3F)sc2n1	–	1.26 µM [rising, full curve, poor fit]
COc1cccc(CC2(CO)CCN(C(=O)NCCc3ccccc3)CC2)c1	–	0.2 µM [falling, full curve, poor fit]
COc1ccc(C(C)(C)C)cc1NC(=O)Nc1ccc2c(c1)OCO2	25.1 µM [falling, partial curve]	35.5 µM [falling, single point]
COc1ccc(NS(=O)(=O)c2cccc(NC(=O)c3ccc(S(=O)(=O)N4CCCCCC4)cc3)c2)cc1	0.562 µM [rising, full curve]	1.12 µM [rising, full curve]

Reformatted with bars between the fields: entries from further up
SMILES | AC50 [1] | AC50 [2]
N#Cc1cncc(-c2ccc3c(c2)OCCOCCOCCOCCOCCO3)n1 | 0.316 µM [falling, full curve, poor fit] | –
CC(C)CNc1nc(SCC(=O)Nc2ccccc2)nc(N2CCOCC2)n1 | 20 µM [falling, partial curve, poor fit] | 15.8 µM [falling, partial curve, poor fit]
